This note sets out measurements from publication doi:10.1101/2021.10.28.466285.

Protein sequences, listed by entry. Tags and fused reporters are not part of them.
UniProt Q14839: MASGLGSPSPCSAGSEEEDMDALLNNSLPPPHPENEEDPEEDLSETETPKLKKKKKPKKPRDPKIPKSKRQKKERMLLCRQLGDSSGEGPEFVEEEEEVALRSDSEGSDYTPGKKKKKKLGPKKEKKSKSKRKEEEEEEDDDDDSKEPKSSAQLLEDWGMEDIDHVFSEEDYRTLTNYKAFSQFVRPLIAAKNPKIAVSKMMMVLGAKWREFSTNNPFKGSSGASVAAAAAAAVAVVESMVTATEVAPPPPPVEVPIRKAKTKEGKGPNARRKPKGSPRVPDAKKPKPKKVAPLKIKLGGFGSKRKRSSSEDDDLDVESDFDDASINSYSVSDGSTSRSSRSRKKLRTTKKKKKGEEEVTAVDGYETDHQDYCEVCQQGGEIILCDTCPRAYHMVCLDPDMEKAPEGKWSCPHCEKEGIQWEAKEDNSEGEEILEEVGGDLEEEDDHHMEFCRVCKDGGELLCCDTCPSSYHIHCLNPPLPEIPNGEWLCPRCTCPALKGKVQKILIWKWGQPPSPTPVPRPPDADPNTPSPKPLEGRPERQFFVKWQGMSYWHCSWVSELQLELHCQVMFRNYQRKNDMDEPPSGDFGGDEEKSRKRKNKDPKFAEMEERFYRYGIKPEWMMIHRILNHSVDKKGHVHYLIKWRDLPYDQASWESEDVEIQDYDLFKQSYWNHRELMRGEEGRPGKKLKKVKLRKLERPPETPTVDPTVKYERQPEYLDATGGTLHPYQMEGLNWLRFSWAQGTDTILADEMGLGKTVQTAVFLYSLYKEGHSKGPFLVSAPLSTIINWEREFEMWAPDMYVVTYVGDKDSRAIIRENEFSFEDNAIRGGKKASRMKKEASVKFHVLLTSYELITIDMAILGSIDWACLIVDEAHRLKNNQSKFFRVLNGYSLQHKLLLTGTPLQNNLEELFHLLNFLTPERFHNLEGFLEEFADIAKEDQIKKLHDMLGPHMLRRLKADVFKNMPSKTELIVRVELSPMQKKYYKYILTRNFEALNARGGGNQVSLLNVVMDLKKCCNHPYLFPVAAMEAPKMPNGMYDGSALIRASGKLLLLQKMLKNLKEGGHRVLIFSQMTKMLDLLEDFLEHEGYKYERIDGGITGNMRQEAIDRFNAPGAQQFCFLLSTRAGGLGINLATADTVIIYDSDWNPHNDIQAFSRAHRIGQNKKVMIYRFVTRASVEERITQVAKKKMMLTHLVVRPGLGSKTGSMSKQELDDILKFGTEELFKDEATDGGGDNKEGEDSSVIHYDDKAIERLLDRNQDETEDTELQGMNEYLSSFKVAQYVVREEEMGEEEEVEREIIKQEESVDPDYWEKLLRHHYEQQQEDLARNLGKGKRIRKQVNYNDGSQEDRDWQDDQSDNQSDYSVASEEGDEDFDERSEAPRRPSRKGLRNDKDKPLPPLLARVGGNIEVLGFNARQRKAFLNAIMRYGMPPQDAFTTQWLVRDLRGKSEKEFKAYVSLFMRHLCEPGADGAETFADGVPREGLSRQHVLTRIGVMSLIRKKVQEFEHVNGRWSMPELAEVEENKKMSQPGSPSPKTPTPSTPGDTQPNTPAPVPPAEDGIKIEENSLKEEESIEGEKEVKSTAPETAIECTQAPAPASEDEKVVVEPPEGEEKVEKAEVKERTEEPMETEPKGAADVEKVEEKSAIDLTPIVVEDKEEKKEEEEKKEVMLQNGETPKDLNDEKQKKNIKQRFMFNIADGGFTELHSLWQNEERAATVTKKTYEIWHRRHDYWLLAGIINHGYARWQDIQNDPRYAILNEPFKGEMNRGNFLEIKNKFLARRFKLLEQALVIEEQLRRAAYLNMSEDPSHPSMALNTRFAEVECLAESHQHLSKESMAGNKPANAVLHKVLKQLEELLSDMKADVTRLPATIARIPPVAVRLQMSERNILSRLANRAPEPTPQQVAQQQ

The assay deals with Full length human CHD4 tagged at C-terminus with Flag/Myc (human) (UniProt Q14839). The assay is described as follows: proximity ligation.

No constants are given. Whether binding was seen depends on the method and setting. Binding seen in cells or lysates may run through a third protein. Some binding calls cover weakened binding; strength is not graded here.

B1: TBX5 expressed with CHD4 in HEK-293 cells (protein, UniProt Q99593 1-518)
chain: MADADEGFGLAHTPLEPDAKDLPCDSKPESALGAPSKSPSSPQAAFTQQGMEGIKVFLHERELWLKFHEVGTEMIITKAGRRMFPSYKVKVTGLNPKTKYILLMDIVPADDHRYKFADNKWSVTGKAEPAMPGRLYVHPDSPATGAHWMRQLVSFQKLKLTNNHLDPFGHIILNSMHKYQPRLHIVKADENNGFGSKNTAFCTHVFPETAFIAVTSYQNHKITQLKIENNPFAKGFRGSDDMELHRMSRMQSKEYPVVPRSTVRQKVASNHSPFSSESRALSTSSNLGSQYQCENGVSGPSQDLLPPPNPYPLPQEHSQIYHCTKRKEEECSTTDHPYKKPYMETSPSEEDSFYRSSYPQQQGLGASYRTESAQRQACMYASSAPPSEPVPSLEDISCNTWPSMPSYSSCTVTTVQPMDRLPYQHFSAHFTSGPLVPRLAGMANHGSPQLGEGMFQHQTSVAHQPVVRQCGPQTGLQSPGTLQPPEFLYSHGVPRTLSPHQYHSVHGVGMVPEWSDNS
On to B1, for which the binding entry is on record as “binds”.
